In PubChem BioAssay AID720504 (National Center for Advancing Translational Sciences (NCATS), 2013):
The whole screen tested about 360,000 compounds, of which about 10,000 (2.8%) were called active. The inconclusive results got no clear call from the source; some entries with a clear call stand among them for comparison. Calls come from the whole dose curve; as a rule, active = well fitted inhibition curve with a large enough effect; inconclusive = small, poorly fitted or top-dose-only effect; inactive = flat fitted curve, though single readings scatter. Potencies of inconclusive entries are doubtful fits and often do not repeat.

Protein sequences, listed by entry. Tags and fused reporters are not part of them.
UniProt P53350, whole entry, looked up: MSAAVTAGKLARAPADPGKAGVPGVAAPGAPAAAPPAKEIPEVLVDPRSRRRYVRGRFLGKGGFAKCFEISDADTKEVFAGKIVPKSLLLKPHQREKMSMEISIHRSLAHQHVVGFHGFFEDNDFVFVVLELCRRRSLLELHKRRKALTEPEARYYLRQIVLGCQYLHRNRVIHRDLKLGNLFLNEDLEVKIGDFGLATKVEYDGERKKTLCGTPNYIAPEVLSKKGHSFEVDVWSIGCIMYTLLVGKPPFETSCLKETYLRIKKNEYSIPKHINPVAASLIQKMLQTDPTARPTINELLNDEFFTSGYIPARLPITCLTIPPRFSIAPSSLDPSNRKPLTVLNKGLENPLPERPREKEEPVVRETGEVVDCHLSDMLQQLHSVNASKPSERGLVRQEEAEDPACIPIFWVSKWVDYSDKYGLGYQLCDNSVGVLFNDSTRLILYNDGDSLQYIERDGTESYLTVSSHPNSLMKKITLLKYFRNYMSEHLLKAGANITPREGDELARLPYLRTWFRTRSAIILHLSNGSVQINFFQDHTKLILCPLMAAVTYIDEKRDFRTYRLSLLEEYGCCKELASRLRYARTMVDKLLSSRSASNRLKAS

target: Serine/threonine-protein kinase PLK1 (Homo sapiens) (UniProt P53350); test: qHTS for Inhibitors of PLK1-PDB (polo-like kinase 1 - polo-box domain): Primary Screen; settings: Plk1 PBD binding of FITC phosphopeptide, fluorescence polarization; note: nearly all actives have a fitted effect of over 65% in size; for max response, negative = inhibition: series mostly up to about 57 µM
% is set by controls: 0 for no effect and ±100 for the full control effect; potency is the fitted concentration of half-maximal effect.

Compound | Potency | max response, negative = inhibition
Cc1ccc(-n2c(SCC(=O)N/N=C/c3ccccc3C(=O)O)nnc2-c2ccc(Cl)cc2)cc1 | inconclusive: 84.4 µM [inhibitor, single point] | –
Cc1cc(C(=O)CSc2ccc(F)cc2)cc(C)c1O | inconclusive: 26.7 µM [inhibitor, partial curve] | –
CCOc1cc(/C=C2\SC(=S)N(Nc3ccccc3)C2=O)ccc1O | inconclusive: 23.8 µM [inhibitor, single point] | –
O=C(O)c1cnc(-c2ccccc2)nc1Sc1ccccc1 | inconclusive: 26.7 µM [inhibitor, partial curve] | –
Cc1ccc(S(=O)(=O)NCCc2cc3ccc(C)cc3[nH]c2=O)cc1 | – | inactive: -4.19%
N#CC1=C(N)SC(N)=C(C#N)C1c1c(Cl)cccc1Cl | inconclusive: 26.7 µM [inhibitor, partial curve] | –
Cc1ccc(NC(=O)CC2Oc3ccc(C)cc3NC2=O)cc1 (stereo unspecified) | – | inconclusive: -35.9% [inhibitor]
CC1=C(C(=O)N(C)C)CC(CC(=O)NCc2cccs2)C(=O)N1CCC1=CCCCC1 (stereo unspecified) | – | inactive: -4.66%
COc1cc(N)c2ncccc2c1SC | inconclusive: 29.9 µM [inhibitor, single point] | –
Cc1cc(NC(=O)Cn2cc([N+](=O)[O-])cn2)no1 | – | inactive: -18.4%
O=C(NCc1ccccn1)c1ccc(NS(=O)(=O)c2cccc([N+](=O)[O-])c2)cc1 | – | inactive: 1.92%
CC1CCCC(NC(=O)CCS(=O)(=O)c2cc3c(cc2Cl)NC(=O)CO3)C1C (stereo unspecified) | active: 26.7 µM | –
O=c1c(/C=C(\O)c2ccccc2)nc2ccccc2n1-c1ccccc1 | inconclusive: 37.7 µM [inhibitor, single point] | –
Oc1[nH]c2ccc(Br)cc2c1N=Nc1ccc(F)cc1 | inconclusive: 16.8 µM [inhibitor, partial curve] | –
Oc1ccc(/C=N/Nc2cc(N3CCOCC3)nc(N3CCOCC3)n2)cc1O | inconclusive: 29.9 µM [inhibitor, partial curve] | –
Cc1ccc(C(=O)N/C(=C\c2cn(S(=O)(=O)N(C)C)c3ccccc23)C(=O)NCCCn2ccnc2)cc1 | active: 29.9 µM | –
CCN(CC(=O)Nc1cc(Cl)ccc1C)C(=O)CCS(=O)(=O)c1ccc(Cl)cc1 | inconclusive: 23.8 µM [inhibitor, partial curve] | –
CC(C)(C)c1nc(Sc2ncccc2[N+](=O)[O-])n[nH]1 | – | inactive: 1.97%
Clc1cccc(N=C2NN=C(c3ccc4c(c3)OCCO4)CS2)c1 | inconclusive: 15 µM [inhibitor, partial curve] | –
COc1cccc(C(=O)N2CCC(N3CC(C)OC(C)C3)CC2)c1 (stereo unspecified) | – | inactive: -8.72%
CCC(c1ccc(O)c(O)c1)C(CC)c1ccc(O)c(O)c1 (stereo unspecified) | inconclusive: 29.9 µM [inhibitor, single point] | –
COc1ccc2c(C(=O)CCl)c[nH]c2c1 | inconclusive: 16.8 µM [inhibitor, partial curve] | –
N#Cc1nc(COc2ccc(F)cc2)oc1NCCCn1ccnc1 | inconclusive: 29.9 µM [inhibitor, partial curve] | –
O=C(N/N=C1/C(=O)c2cccc3cccc1c23)c1ccc(Cl)cc1 | inconclusive: 10.6 µM [inhibitor, partial curve] | –

Among those listed so far, 3 contain a nitro group on carbon.
Compound | Potency | max response, negative = inhibition
Cc1cc(NC(=O)Cn2cc([N+](=O)[O-])cn2)no1 | – | inactive: -18.4%
O=C(NCc1ccccn1)c1ccc(NS(=O)(=O)c2cccc([N+](=O)[O-])c2)cc1 | – | inactive: 1.92%
CC(C)(C)c1nc(Sc2ncccc2[N+](=O)[O-])n[nH]1 | – | inactive: 1.97%

(cont.)

Compound | Potency | max response, negative = inhibition
CCOCCCNC(=S)N1CCN(CC)CC1 | – | inactive: -13.5%
O=C(COc1ccccc1)Nc1nc(-c2ccc(S(=O)(=O)N3CCOCC3)cc2)cs1 | inconclusive: 23.8 µM [inhibitor, partial curve] | –
Cc1cc2n(n1)C(c1ccc(N(C)C)cc1)Nc1ccccc1-2 (stereo unspecified) | – | inactive: 1.38%
O=C(CCNc1ccc(Cc2ccncc2)cc1)c1ccc([N+](=O)[O-])cc1 | inconclusive: 18.9 µM [inhibitor, partial curve, poor fit] | –
CN(Cc1cn(-c2ccccc2)nc1-c1cc2ccccc2o1)C(=O)CCC(=O)O | active: 4.23 µM | –
Cc1cc(F)ccc1NCc1cccnc1 | inconclusive: 26.7 µM [inhibitor, partial curve] | –
Oc1ccccc1C(=S)N1CCN(C(=S)c2ccccc2O)CC1 | active: 23.8 µM | –
Cc1ccc(C)c(S(=O)(=O)N2CCN(C(=O)CSc3ccccc3)CC2)c1 | inconclusive: 23.8 µM [inhibitor, partial curve] | –
COc1cc([N+](=O)[O-])ccc1NC(=O)CSc1nncn1-c1cccnc1 | inconclusive: 29.9 µM [inhibitor, single point] | –
CC(=O)c1cccc(S(=O)(=O)NC2CCSc3ccccc32)c1 (stereo unspecified) | active: 26.7 µM | –
CCOC(=O)C1=C(N)Oc2cc(O)ccc2C1c1ccc([N+](=O)[O-])cc1 (stereo unspecified) | – | inactive: -5.45%
Cn1cc(-c2ccccc2C(=O)O)c(=O)c2cc(Cl)ccc21 | inconclusive: 15 µM [inhibitor, partial curve] | –
CCSc1nnc(NC(=O)CN2C(=O)C3CC=CCC3C2=O)s1 (stereo unspecified) | – | inactive: -4.57%
CCOC(=O)c1cc(-c2ccc(/C=C3/C(=O)N(c4ccc(C(=O)O)cc4)N=C3C)o2)ccc1Cl | active: 0.844 µM | –
CCOC(=O)c1[nH]c2ccccc2c1NC(=S)Nc1ccccc1C | inconclusive: 26.7 µM [inhibitor, partial curve] | –
COc1ccccc1Cc1c(-c2ccco2)nc2cc(C)c(Br)c(C)n12 | inconclusive: 13.4 µM [inhibitor, partial curve] | –
CC(CNC(=O)CN1C(=O)COc2ccc(S(=O)(=O)N3CCCCC3)cc21)c1ccccc1 (stereo unspecified) | inconclusive: 23.8 µM [inhibitor, partial curve] | –
COc1nccnc1NS(=O)(=O)c1ccc(NC(=S)NC(=O)c2ccccc2F)cc1 | inconclusive: 26.7 µM [inhibitor, single point] | –
CCO/C=C1/C(=O)N(C)C(=O)c2cc(OC)ccc21 | inconclusive: 26.7 µM [inhibitor, partial curve] | –
CC(NC1=CC(=O)c2cccnc2C1=O)C(O)c1ccccc1 (stereo unspecified) | inconclusive: 29.9 µM [inhibitor, single point] | –
C/C(=N\O)C(=O)NCC1CCNCC1 | active: 26.7 µM | –
COc1ccc(-c2nn3c(COc4ccccc4)nnc3s2)cc1OC | inconclusive: 26.7 µM [inhibitor, partial curve] | –
Cc1cccc(S(=O)(=O)N(C)C[C@@H]2OCc3cnnn3CCCC(=O)N([C@H](C)CO)C[C@@H]2C)c1 | – | inactive: -8.68%
Cc1ccc(CSCC(=O)N(C)CC(=O)Nc2ccccc2C(F)(F)F)cc1 | – | inactive: -5.25%

Compound | Potency | max response, negative = inhibition
COc1ccc(O)c(C(=O)CC(=O)c2cccnc2)c1 | – | inactive: 3.33%
CC1=CCC2C(=O)N(c3ccc(C)c(Br)c3)C(=O)C2C1 (stereo unspecified) | inconclusive: 29.9 µM [inhibitor, partial curve] | –
CC1SC(=S)N(c2ccc(N(C)C)cc2)C1=O (stereo unspecified) | inconclusive: 23.8 µM [inhibitor, single point] | –
NNC(=S)NCc1ccco1 | inconclusive: 23.8 µM [inhibitor, single point] | –
CC(C)CCOc1ccc(CO[C@@H]2[C@H]3OC(C)(C)O[C@H]3O[C@@H]2C(O)CO)cc1 (stereo partly specified) | – | inactive: -4.53%
C[C@H]1C(=O)N(C)CCN1Cc1cn(C)nc1-c1ccc(Oc2ccccc2)cc1 | – | inactive: 2.06%
O=C(CSc1ncccn1)Nc1ccc2c(c1)CCC2 | – | inactive: -1.11%
N#Cc1c(N)nc2c(c1-c1ccccc1)CCC2 | – | inactive: -6.25%
Nc1ccc(O)cc1C(=O)OCC(=O)c1ccc(C2CCCCC2)cc1 | – | inactive: 5.26%
O=C(CC(Sc1ccc(Br)cc1)C(=O)O)c1ccc(F)cc1 (stereo unspecified) | inconclusive: 2.38 µM [inhibitor, full curve] | –
Cn1c2c(c(=O)n(C)c1=O)C(c1ccccc1Cl)C(C#N)=C(N)O2 (stereo unspecified) | inconclusive: 26.7 µM [inhibitor, partial curve] | –
COc1cc(/C=N/NS(=O)(=O)c2ccc(C)c([N+](=O)[O-])c2)ccc1O | inconclusive: 26.7 µM [inhibitor, single point] | –
COc1ccc(C)cc1NC(=O)Nc1ccccc1 | – | inactive: -8.16%
CCN(CC)c1ccc(NC(=O)C2CCCN(S(=O)(=O)c3cnc[nH]3)C2)c(C)c1 (stereo unspecified) | inconclusive: 23.8 µM [inhibitor, partial curve] | –
CCOc1ccccc1NC(=S)/C(=C(\[O-])c1ccc2c(c1)OCCO2)[n+]1ccc(CC)cc1 | active: 21.2 µM | –
O=[N+]([O-])c1ccc(/C=N/NC(=S)Nc2ccccc2F)o1 | inconclusive: 29.9 µM [inhibitor, partial curve] | –
Cc1cccc(N2CCN(C(=S)c3ccc(-c4ccccc4[N+](=O)[O-])o3)CC2)c1 | inconclusive: 29.9 µM [inhibitor, partial curve] | –
COc1[nH]c(/N=C/c2ccccc2)c(C#N)c1C#N | active: 21.2 µM | –
COc1ccc(-n2c(CNC(=O)c3ccc(S(=O)(=O)N4CCCC4)cc3)n[nH]c2=S)cc1 | – | inactive: -15.3%
O=C(c1ccccc1)C1C(=O)c2ccccc2C1=O | – | inactive: -16.5%
Cc1oc2c(c1C(=O)c1ccccc1)C(=O)C(=O)c1ccccc1-2 | inconclusive: 29.9 µM [inhibitor, partial curve] | –
CCC(=O)OC1(C)C(=O)C=C2C=C(c3ccc(C#N)cc3)OC=C2C1=O (stereo unspecified) | inconclusive: 16.8 µM [inhibitor, partial curve] | –
CC1CC(N(C(=O)c2ccco2)c2ccccc2)c2ccccc2N1C(=O)c1ccco1 (stereo unspecified) | – | inactive: -10.5%
